The list shows a part of the results, in another mix than the full data. At the low end of the ranking, values are background and their order means little.

Amino acid sequences for entries named in this document (tags omitted). A change or cut given only in a name is not applied to a line headed by its entry.
UniProt Q01892: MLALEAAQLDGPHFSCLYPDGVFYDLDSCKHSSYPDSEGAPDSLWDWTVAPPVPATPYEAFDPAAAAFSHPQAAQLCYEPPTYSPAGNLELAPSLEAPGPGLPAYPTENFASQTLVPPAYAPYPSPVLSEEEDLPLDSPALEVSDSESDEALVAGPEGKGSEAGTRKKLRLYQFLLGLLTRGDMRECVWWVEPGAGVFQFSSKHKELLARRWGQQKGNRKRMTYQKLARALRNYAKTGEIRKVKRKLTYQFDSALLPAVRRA

The first test addresses T1, FLI1 (UniProt Q01543).
T1 sequence: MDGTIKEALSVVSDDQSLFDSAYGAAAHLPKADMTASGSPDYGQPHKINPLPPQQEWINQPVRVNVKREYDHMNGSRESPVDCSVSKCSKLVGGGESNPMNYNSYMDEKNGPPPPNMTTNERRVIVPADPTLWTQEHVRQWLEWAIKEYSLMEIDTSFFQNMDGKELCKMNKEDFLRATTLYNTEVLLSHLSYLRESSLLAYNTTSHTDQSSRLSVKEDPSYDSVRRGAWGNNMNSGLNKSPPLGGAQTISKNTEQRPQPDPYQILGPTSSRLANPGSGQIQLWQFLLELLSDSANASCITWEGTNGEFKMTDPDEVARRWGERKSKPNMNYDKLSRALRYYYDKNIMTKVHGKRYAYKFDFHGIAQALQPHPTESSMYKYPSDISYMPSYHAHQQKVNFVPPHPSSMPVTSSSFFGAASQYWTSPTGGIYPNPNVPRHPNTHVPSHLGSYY
Description: DAPPL (digital affinity profiling via proximity ligation, sequencing). Conditions: 10 mM Tris-HCl pH 7.5, 50 mM NaCl, 1 mM DTT, 4% glycerol, room temperature, 30 min; GST-TFs on glutathione beads, 16-mer random dsDNA library, 0.1% …; high values mean tight binding; double strand, one strand shown; scale: fold enrichment (6-mer frequency, TF over GST control).
GCAGCG returned a binding signal of 0.798.

With GACGGA, the binding signal was 0.494.

In the case of ACGCAA, the binding signal is 0.862.

The sequence GGCCGT gave a binding signal of 0.43.

Regarding TGGGAG, the binding signal came to 0.456.

Sequence GGAGCC registered a binding signal of 0.337.

AGAGCC showed a binding signal of 0.766.

The sequence GGGCAC gave a binding signal of 0.797.

In turn, GGCAAC gave a binding signal of 0.912.

Consider CAAGGA, for which the binding signal is 0.729.

GGAGCA showed a binding signal of 0.452.

The sequence GGCATG displayed a binding signal of 0.883.

GACGCG: the binding signal came out at 0.629.

Sequence GTCGCT showed a binding signal of 0.764.

Regarding GGGGCG, the binding signal was found to be 0.632.

For the sequence GGCACA, the binding signal came to 0.847.

Consider GGTCGT, for which the binding signal stood at 0.586.

With TAGGAG, the binding signal was 0.397.

Sequence GTGGCG yielded a binding signal of 0.772.

On to CAGAGC, for which the binding signal came to 0.887.

With ATGGAG, the binding signal stood at 0.559.

For the sequence CGTAGT, the binding signal was 0.829.

Turning to AACAGT, the binding signal turned out to be 0.662.

GGGGCC displayed a binding signal of 0.538.

CGCAGC: the binding signal was 0.849.

CTGAGT yielded a binding signal of 0.65.

With CAGGTT, the binding signal stood at 0.661.

Turning to CAGTGT, the binding signal worked out at 0.706.

Sequence TGTGTA displayed a binding signal of 0.862.

Take CGGTGA: the binding signal came to 0.476.

Turning to AAGGAC, the binding signal is 0.888.

Regarding GAAGAC, the binding signal was 0.918.

Sequence AGGTCG had a binding signal of 0.53.

Sequence GAGCGC came in with a binding signal of 0.585.

Sequence GAGTTA displayed a binding signal of 0.571.

Consider TAGGAC, for which the binding signal was 0.868.

AGGAGC had a binding signal of 0.392.

Sequence CAGCGT yielded a binding signal of 0.831.

A further test concerns the target T2, EHF (UniProt Q9NZC4).
T2 sequence: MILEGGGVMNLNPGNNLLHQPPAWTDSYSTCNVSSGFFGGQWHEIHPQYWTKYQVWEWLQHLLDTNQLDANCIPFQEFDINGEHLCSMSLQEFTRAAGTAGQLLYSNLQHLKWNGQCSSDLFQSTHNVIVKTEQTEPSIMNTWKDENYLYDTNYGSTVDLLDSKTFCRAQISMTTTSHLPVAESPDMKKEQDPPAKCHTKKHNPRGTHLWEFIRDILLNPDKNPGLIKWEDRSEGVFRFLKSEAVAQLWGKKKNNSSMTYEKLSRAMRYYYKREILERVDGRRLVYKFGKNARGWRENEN
The description is as above. Conditions: 10 mM Tris-HCl pH 7.5, 50 mM NaCl, 1 mM DTT, 4% glycerol, room temperature, 30 min; GST-TFs on glutathione beads, 16-mer random dsDNA library, 0.1% …; high values mean tight binding; double strand, one strand shown; scale: fold enrichment (6-mer frequency, TF over GST control).
The sequence GCAGCG registered a binding signal of 0.777.

As to GACGGA, the binding signal was found to be 0.565.

ACGCAA: the binding signal amounted to 0.896.

In turn, GGCCGT displayed a binding signal of 0.404.

The sequence TGGGAG gave a binding signal of 0.427.

For GGAGCC, the binding signal amounted to 0.304.

On to AGAGCC, for which the binding signal worked out at 0.813.

GGGCAC displayed a binding signal of 0.748.

As for GGCAAC, the binding signal is 0.887.

CAAGGA yielded a binding signal of 0.83.

Take GGAGCA: the binding signal worked out at 0.486.

GGCATG yielded a binding signal of 0.795.

Turning to GACGCG, the binding signal stood at 0.67.

GTCGCT: the binding signal stood at 0.765.

As for GGGGCG, the binding signal is 0.657.

Take GGCACA: the binding signal was found to be 0.859.

As to GGTCGT, the binding signal turned out to be 0.669.

The sequence TAGGAG returned a binding signal of 0.394.

Sequence GTGGCG returned a binding signal of 0.768.

Take CAGAGC: the binding signal is 0.824.

For the sequence ATGGAG, the binding signal amounted to 0.598.

The sequence CGTAGT had a binding signal of 0.852.

AACAGT showed a binding signal of 0.698.

Consider GGGGCC, for which the binding signal was found to be 0.596.

For the sequence CGCAGC, the binding signal was 0.764.

The sequence CTGAGT gave a binding signal of 0.632.

CAGGTT returned a binding signal of 0.656.

Regarding CAGTGT, the binding signal was 0.684.

TGTGTA yielded a binding signal of 0.828.

Take CGGTGA: the binding signal amounted to 0.445.

With AAGGAC, the binding signal is 0.838.

Take GAAGAC: the binding signal was found to be 0.872.

As for AGGTCG, the binding signal came to 0.534.

GAGCGC showed a binding signal of 0.641.

GAGTTA: the binding signal came out at 0.612.

For TAGGAC, the binding signal was 0.891.

As to AGGAGC, the binding signal was determined as 0.362.

With CAGCGT, the binding signal was 0.814.

The target in the next test is SPIB (UniProt Q01892). The description is as above. Conditions: 10 mM Tris-HCl pH 7.5, 50 mM NaCl, 1 mM DTT, 4% glycerol, room temperature, 30 min; GST-TFs on glutathione beads, 16-mer random dsDNA library, 0.1% …; high values mean tight binding; double strand, one strand shown; scale: fold enrichment (6-mer frequency, TF over GST control).
GCAGCG displayed a binding signal of 0.883.

GACGGA displayed a binding signal of 0.535.

In turn, ACGCAA returned a binding signal of 0.915.

On to GGCCGT, for which the binding signal is 0.376.

TGGGAG gave a binding signal of 0.42.

For the sequence GGAGCC, the binding signal amounted to 0.318.

In turn, AGAGCC displayed a binding signal of 0.688.

The sequence GGGCAC gave a binding signal of 0.818.

Regarding GGCAAC, the binding signal was 0.889.

Sequence CAAGGA gave a binding signal of 0.695.

Consider GGAGCA, for which the binding signal was determined as 0.428.

GGCATG returned a binding signal of 0.853.

On to GACGCG, for which the binding signal turned out to be 0.604.

Turning to GTCGCT, the binding signal turned out to be 0.681.

GGGGCG came in with a binding signal of 0.59.

In turn, GGCACA had a binding signal of 0.904.

GGTCGT: the binding signal was found to be 0.657.

With TAGGAG, the binding signal stood at 0.391.

In turn, GTGGCG returned a binding signal of 0.823.

CAGAGC: the binding signal is 0.837.

Sequence ATGGAG showed a binding signal of 0.517.

CGTAGT gave a binding signal of 0.822.

Regarding AACAGT, the binding signal is 0.734.

The sequence GGGGCC gave a binding signal of 0.547.

For the sequence CGCAGC, the binding signal amounted to 0.871.

For CTGAGT, the binding signal came out at 0.612.

As to CAGGTT, the binding signal stood at 0.666.

CAGTGT came in with a binding signal of 0.673.

TGTGTA yielded a binding signal of 0.842.

CGGTGA: the binding signal is 0.403.

Sequence AAGGAC had a binding signal of 0.843.

Sequence GAAGAC gave a binding signal of 0.929.

AGGTCG returned a binding signal of 0.522.

In turn, GAGCGC gave a binding signal of 0.601.

GAGTTA came in with a binding signal of 0.582.

Sequence TAGGAC yielded a binding signal of 0.84.

With AGGAGC, the binding signal was 0.358.

In the case of CAGCGT, the binding signal turned out to be 0.907.
